Experimental data from paper PMC4195675.
These are yes or no findings as the source states them, for the method shown. Binding seen in cells or lysates may run through a third protein. Some entries that bind do so weakly or less than the wild type.

Protein sequences, listed by entry. Tags and fused reporters are not part of them.
UniProt Q9C035: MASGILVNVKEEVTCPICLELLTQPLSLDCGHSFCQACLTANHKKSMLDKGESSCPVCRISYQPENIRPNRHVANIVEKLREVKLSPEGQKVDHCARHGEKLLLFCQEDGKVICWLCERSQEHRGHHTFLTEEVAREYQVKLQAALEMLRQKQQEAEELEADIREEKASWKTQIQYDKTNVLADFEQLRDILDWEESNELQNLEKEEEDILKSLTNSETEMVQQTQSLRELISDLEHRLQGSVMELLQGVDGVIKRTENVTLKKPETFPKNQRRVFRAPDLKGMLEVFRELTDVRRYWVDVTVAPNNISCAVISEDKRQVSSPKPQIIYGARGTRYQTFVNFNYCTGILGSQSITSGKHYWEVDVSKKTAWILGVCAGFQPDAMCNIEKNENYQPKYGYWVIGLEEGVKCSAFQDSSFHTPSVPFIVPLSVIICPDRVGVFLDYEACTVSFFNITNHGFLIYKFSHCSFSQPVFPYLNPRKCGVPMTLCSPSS
UniProt O15524: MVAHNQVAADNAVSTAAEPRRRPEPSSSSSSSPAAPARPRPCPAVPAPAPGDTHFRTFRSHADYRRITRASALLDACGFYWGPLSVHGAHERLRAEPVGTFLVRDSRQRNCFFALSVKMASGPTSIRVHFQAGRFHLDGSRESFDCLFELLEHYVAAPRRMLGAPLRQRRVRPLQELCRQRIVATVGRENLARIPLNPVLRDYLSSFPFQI

Biological target: human TRIM5α (HuTRIM5α) (human) (UniProt Q9C035)
Test: co-IP; SOCS1 with HuTRIM5α; data not shown; cells not given

SOCS1 in the co-immunoprecipitation with HuTRIM5α (from UniProt O15524 1-211)
binding: binds
